Taken from: PubChem BioAssay AID720505 (Drosophila RNAi Screening Center, 2013)
In all, the deposit lists about 20,000 reagents; this is an unselected part of those that have a named target and a result. Of all reagents, about 2,100 (10%) are marked active. 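Raw plate signals without normalisation; calls rest on control-based scores that were not deposited; replicate 2 separates called from uncalled poorly.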 The numbers tell different reagents against one gene apart. Names joined by + are all predicted targets of the reagent. Not given: the amount of reagent, the time to read-out.

Assay: 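Knock-downs that reduce calcium influx once internal stores are emptied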 (primary screen)
Cells: Drosophila S2R+ cells
Reagent: long dsRNA against Drosophila genes
Challenge: thapsigargin (2 µM) in calcium-free buffer to empty internal stores, then 2 mM calcium added back
Detection: 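Fluo-4 signal in 384-well plates read on a FLIPR after thapsigargin (2 µM, calcium-free) store depletion and 2 mM calcium add-back; unnormalised mean endpoint per well; screen run twice, selected wells retested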
Reading the numbers: calcium signal and retest calcium signal: higher = more calcium entry after store depletion
Call rule: 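About 1500 genes called as lowering calcium entry, by varying amounts, judged against per-plate control wells with STIM1 as positive and Rho1 as negative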
Calls: active = called as lowering calcium entry; inactive = not called

| predicted target | reagent no. | calcium signal, replicate 1 | calcium signal, replicate 2 | retest calcium signal, replicate 1 | retest calcium signal, replicate 2 | outcome |
| --- | --- | --- | --- | --- | --- | --- |
| CG5418 | 1 | 120 | 167 | – | – | inactive |
| 5-HT1B | 1 | 112 | 121 | – | – | inactive |
| 5-HT1B | 2 | 64.1 | 64.4 | – | – | active |
| CG13197 | 1 | 114 | 239 | – | – | inactive |
| pall | 1 | 108 | 166 | – | – | inactive |
| CG18599 | 1 | 153 | 122 | 11451 | 152 | inactive |
| CG18599 | 2 | 82.2 | 71.5 | – | – | active |
| CG18599 | 3 | 128 | 141 | – | – | inactive |
| CG10232 | 1 | 155 | 145 | – | – | inactive |
| CG7333 | 1 | 234 | 170 | – | – | inactive |
| Samtor | 1 | 63.9 | 200 | – | – | active |
| SPARC | 1 | 111 | 107 | – | – | inactive |
| CG34133 | 1 | 108 | 83.5 | – | – | inactive |
| CG34133 | 2 | 76.2 | 249 | – | – | inactive |
| Nedd4 | 1 | 133 | 136 | – | – | inactive |
| Nedd4 | 2 | 255 | 114 | – | – | inactive |
| CG18659 | 1 | 143 | 130 | – | – | inactive |
| pdm3 | 1 | 106 | 122 | – | – | inactive |
| pdm3 | 2 | 103 | 158 | – | – | inactive |
| pdm3 | 3 | 96.1 | 228 | – | – | inactive |
| pdm3 | 4 | 124 | 113 | – | – | inactive |
| Cpr66Cb | 1 | 85.5 | 51.9 | – | – | inactive |
| CG43068 | 1 | 113 | 152 | – | – | inactive |
| Ace | 1 | – | – | – | – | inactive |
| Ace | 2 | 91.7 | 164 | – | – | inactive |
| CG34370 | 1 | 151 | 7425 | – | – | inactive |
| CG34370 | 2 | 161 | 87.5 | – | – | inactive |
| CG34370 | 3 | 183 | 104 | – | – | inactive |
| CG34370 | 4 | 175 | 114 | – | – | inactive |
| EMC10 | 1 | 84.7 | 172 | – | – | inactive |
| sals | 1 | 109 | 87.8 | – | – | inactive |
| sals | 2 | 170 | 114 | – | – | inactive |
| Ets21C | 1 | 93.9 | 152 | – | – | inactive |
| Rpp25 | 1 | 125 | 193 | – | – | inactive |
| CG31454 | 1 | 123 | 204 | – | – | inactive |
| CG31454 | 2 | 96.4 | 116 | – | – | inactive |
| Dbp73D | 1 | 118 | 100 | – | – | inactive |
| Acbp3 | 1 | 71.8 | 66.3 | – | – | inactive |
| kl-2 | 1 | 129 | 112 | – | – | inactive |
| Alp5 | 1 | 156 | 195 | – | – | inactive |
| CG42713 | 1 | 125 | 90.5 | – | – | inactive |
| Stacl | 1 | 68.2 | 126 | – | – | active |
| Stacl | 2 | 95.1 | 162 | – | – | inactive |
| Stacl | 3 | 104 | 142 | – | – | inactive |
| Stacl | 4 | 111 | 206 | – | – | inactive |
| Stacl | 5 | 105 | 88.2 | 71 | 107 | inactive |
| Stacl | 6 | 125 | 158 | – | – | inactive |
| Stacl | 7 | 106 | 77.9 | – | – | inactive |
| RpL19 | 1 | 77 | 80 | – | – | inactive |
| CG32269 + CG32270 | 1 | 61.6 | 105 | – | – | inactive |
| CG31606 | 1 | 168 | 114 | – | – | inactive |
| alt | 1 | 155 | 275 | – | – | inactive |
| shn | 1 | 103 | 93.7 | – | – | inactive |
| shn | 2 | 145 | 127 | – | – | inactive |
| VGAT | 1 | 96.9 | 168 | – | – | inactive |
| Mef2 | 1 | 199 | 213 | – | – | inactive |
| CR43359 | 1 | 63.7 | 7461 | – | – | active |
| CG17724 | 1 | 121 | 190 | – | – | inactive |
| Caf1-180 | 1 | 135 | 64.1 | – | – | active |
| CG5565 | 1 | 192 | 142 | – | – | inactive |
| CG5327 | 1 | 159 | 161 | – | – | inactive |
| toc | 1 | 79.2 | 150 | – | – | inactive |
| toc | 2 | 58 | 98.7 | – | – | active |
| toc | 3 | 119 | 187 | – | – | inactive |
| CG34054 | 1 | 98.1 | 153 | – | – | inactive |
| Srpk79D | 1 | 118 | 107 | – | – | inactive |
| Srpk79D | 2 | 107 | 109 | – | – | inactive |
| CG13437 | 1 | 75.3 | 107 | – | – | inactive |
| eIF4G1 | 1 | 94.1 | 132 | – | – | inactive |
| CG12316 | 1 | 137 | 135 | – | – | inactive |
| nyo | 1 | 94.9 | 87.8 | – | – | inactive |
| nyo | 2 | 87.9 | 122 | – | – | inactive |
| CG15878 | 1 | 72.2 | 93 | – | – | inactive |
| CG5888 | 1 | 111 | 145 | – | – | inactive |
| mud | 1 | 91.2 | 180 | 6479 | 136 | inactive |
| CG13186 | 1 | 86.5 | 154 | – | – | inactive |
| eIF3i | 1 | 56.5 | 108 | – | – | active |
| PIG-G | 1 | 177 | 74.5 | – | – | inactive |
| TyrR | 1 | 65.2 | 94.9 | – | – | active |
| teq | 1 | 96.5 | 79.4 | – | – | inactive |
| teq | 2 | 86.5 | 80.7 | – | – | inactive |
| teq | 3 | 86.4 | 101 | – | – | inactive |
| CG17564 | 1 | 162 | 90.9 | – | – | inactive |

Copied from above, 14 entries:
| predicted target | reagent no. | calcium signal, replicate 1 | calcium signal, replicate 2 | retest calcium signal, replicate 1 | retest calcium signal, replicate 2 | outcome |
| --- | --- | --- | --- | --- | --- | --- |
| Stacl | 3 | 104 | 142 | – | – | inactive |
| Stacl | 4 | 111 | 206 | – | – | inactive |
| Stacl | 5 | 105 | 88.2 | 71 | 107 | inactive |
| Stacl | 6 | 125 | 158 | – | – | inactive |
| Stacl | 7 | 106 | 77.9 | – | – | inactive |
| RpL19 | 1 | 77 | 80 | – | – | inactive |
| CG32269 + CG32270 | 1 | 61.6 | 105 | – | – | inactive |
| CG31606 | 1 | 168 | 114 | – | – | inactive |
| alt | 1 | 155 | 275 | – | – | inactive |
| shn | 1 | 103 | 93.7 | – | – | inactive |
| shn | 2 | 145 | 127 | – | – | inactive |
| VGAT | 1 | 96.9 | 168 | – | – | inactive |
| Mef2 | 1 | 199 | 213 | – | – | inactive |
| CR43359 | 1 | 63.7 | 7461 | – | – | active |
